Measurements: the supplement of paper PMC10849652
The other results are listed elsewhere or left out.

Sequences of proteins named here, by UniProt entry; tags and fusion partners are left off. A change or cut given only in a name is not applied to a line headed by its entry.
UniProt Q969E2: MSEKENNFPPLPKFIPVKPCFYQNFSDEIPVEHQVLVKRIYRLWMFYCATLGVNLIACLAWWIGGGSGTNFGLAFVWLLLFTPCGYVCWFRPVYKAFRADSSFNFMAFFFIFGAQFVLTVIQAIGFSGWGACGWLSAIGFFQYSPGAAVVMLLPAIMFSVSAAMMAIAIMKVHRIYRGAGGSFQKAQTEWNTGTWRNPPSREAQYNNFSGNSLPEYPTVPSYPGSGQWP
UniProt Q6PCB5: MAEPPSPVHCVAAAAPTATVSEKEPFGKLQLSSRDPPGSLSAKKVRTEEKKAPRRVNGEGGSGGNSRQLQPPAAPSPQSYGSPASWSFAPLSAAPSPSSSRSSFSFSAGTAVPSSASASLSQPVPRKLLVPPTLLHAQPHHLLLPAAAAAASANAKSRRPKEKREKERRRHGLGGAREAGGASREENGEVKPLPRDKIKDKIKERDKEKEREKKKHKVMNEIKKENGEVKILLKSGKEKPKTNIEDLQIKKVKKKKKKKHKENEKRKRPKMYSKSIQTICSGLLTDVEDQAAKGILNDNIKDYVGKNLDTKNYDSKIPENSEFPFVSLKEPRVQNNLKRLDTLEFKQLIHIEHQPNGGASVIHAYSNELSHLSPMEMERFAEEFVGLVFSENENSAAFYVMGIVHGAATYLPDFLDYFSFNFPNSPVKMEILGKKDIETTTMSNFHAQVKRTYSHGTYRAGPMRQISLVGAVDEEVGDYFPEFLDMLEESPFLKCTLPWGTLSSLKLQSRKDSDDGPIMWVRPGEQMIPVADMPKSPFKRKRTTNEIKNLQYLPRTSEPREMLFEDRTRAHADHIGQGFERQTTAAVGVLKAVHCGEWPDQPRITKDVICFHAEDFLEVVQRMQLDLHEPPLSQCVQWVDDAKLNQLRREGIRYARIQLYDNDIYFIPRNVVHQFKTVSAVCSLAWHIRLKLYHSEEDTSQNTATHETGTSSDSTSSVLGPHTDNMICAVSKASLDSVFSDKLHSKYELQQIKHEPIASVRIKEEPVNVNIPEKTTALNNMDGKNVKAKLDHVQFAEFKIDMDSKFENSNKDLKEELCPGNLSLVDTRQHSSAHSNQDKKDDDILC
UniProt Q15050: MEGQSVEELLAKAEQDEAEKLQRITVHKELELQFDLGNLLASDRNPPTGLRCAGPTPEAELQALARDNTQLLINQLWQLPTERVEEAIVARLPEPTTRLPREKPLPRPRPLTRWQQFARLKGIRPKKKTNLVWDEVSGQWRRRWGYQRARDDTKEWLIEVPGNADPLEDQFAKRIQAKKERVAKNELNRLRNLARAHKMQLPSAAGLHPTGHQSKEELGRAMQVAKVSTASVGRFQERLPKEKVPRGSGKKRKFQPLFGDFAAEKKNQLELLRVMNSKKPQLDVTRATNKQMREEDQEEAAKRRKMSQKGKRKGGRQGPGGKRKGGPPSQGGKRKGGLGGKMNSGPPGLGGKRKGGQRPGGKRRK
UniProt O95197: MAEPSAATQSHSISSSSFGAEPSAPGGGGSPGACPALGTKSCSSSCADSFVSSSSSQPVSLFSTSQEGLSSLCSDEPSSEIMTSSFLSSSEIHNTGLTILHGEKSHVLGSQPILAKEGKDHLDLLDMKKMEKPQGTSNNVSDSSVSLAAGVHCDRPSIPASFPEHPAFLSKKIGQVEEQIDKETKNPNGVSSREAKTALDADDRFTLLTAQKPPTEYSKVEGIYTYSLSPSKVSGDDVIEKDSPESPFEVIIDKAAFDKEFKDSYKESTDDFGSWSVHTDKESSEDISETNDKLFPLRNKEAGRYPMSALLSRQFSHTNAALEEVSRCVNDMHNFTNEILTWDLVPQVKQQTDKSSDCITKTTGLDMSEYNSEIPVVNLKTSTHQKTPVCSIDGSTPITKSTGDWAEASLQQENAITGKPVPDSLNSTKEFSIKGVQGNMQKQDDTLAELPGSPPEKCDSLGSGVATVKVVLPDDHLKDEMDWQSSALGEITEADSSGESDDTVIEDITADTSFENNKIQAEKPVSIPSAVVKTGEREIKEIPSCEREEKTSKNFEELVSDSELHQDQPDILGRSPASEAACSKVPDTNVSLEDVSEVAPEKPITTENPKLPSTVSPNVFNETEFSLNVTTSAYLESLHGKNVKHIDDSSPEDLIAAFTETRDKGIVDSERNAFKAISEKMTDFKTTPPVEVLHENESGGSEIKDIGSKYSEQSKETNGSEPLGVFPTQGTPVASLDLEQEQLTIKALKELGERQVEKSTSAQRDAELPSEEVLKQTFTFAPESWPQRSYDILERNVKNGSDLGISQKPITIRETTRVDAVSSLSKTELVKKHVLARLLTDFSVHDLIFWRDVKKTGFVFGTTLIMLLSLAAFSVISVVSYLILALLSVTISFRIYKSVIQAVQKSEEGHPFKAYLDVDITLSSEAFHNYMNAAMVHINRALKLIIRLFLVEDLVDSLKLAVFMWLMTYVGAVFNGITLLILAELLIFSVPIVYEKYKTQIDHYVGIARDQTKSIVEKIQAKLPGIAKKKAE
UniProt Q99590: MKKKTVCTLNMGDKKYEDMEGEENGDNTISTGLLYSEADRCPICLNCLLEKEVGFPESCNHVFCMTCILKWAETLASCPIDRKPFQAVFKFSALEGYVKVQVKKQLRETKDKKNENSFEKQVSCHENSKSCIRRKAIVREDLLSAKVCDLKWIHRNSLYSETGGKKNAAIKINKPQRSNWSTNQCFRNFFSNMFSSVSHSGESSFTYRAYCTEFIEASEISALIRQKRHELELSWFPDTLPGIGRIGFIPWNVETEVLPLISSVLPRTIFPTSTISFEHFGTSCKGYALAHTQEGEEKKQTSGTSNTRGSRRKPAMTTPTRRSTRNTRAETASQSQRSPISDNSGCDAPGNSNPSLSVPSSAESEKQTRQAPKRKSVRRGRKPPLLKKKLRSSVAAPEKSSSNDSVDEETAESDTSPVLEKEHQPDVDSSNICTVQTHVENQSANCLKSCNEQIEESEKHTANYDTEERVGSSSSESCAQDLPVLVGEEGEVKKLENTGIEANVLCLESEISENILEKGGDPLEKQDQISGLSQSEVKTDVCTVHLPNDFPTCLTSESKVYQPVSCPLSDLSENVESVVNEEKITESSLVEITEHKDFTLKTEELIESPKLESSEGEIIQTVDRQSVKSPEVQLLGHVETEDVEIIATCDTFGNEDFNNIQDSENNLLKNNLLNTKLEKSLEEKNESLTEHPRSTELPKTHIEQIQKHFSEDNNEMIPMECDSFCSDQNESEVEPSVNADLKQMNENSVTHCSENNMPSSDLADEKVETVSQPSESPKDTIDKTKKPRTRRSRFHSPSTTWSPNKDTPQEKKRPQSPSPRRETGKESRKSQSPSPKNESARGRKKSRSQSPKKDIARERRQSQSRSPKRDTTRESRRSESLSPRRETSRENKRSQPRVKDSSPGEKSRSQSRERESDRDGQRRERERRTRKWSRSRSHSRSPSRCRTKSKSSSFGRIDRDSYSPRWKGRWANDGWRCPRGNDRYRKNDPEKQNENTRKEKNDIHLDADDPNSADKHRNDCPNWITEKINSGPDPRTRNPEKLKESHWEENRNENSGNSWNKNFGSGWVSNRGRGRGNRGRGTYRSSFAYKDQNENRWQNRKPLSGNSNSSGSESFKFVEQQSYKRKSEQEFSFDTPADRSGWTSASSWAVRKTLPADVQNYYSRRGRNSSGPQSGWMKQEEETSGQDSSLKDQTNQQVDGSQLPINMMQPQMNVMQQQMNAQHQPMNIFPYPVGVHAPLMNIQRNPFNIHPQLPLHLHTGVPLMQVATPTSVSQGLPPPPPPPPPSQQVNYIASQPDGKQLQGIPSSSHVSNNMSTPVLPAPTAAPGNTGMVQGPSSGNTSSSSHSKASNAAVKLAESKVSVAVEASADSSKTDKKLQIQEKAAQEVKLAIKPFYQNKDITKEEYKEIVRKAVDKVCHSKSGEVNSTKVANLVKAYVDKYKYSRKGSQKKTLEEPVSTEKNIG
UniProt Q9BY42: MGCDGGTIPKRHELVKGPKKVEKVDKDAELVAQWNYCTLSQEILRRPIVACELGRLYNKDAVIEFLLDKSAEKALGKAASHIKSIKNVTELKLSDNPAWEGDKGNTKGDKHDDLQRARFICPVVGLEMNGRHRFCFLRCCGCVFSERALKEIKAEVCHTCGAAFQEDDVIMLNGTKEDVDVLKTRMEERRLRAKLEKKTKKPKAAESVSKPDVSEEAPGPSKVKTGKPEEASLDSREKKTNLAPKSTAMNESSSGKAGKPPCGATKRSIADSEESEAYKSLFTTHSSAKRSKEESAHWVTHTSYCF
UniProt O94885: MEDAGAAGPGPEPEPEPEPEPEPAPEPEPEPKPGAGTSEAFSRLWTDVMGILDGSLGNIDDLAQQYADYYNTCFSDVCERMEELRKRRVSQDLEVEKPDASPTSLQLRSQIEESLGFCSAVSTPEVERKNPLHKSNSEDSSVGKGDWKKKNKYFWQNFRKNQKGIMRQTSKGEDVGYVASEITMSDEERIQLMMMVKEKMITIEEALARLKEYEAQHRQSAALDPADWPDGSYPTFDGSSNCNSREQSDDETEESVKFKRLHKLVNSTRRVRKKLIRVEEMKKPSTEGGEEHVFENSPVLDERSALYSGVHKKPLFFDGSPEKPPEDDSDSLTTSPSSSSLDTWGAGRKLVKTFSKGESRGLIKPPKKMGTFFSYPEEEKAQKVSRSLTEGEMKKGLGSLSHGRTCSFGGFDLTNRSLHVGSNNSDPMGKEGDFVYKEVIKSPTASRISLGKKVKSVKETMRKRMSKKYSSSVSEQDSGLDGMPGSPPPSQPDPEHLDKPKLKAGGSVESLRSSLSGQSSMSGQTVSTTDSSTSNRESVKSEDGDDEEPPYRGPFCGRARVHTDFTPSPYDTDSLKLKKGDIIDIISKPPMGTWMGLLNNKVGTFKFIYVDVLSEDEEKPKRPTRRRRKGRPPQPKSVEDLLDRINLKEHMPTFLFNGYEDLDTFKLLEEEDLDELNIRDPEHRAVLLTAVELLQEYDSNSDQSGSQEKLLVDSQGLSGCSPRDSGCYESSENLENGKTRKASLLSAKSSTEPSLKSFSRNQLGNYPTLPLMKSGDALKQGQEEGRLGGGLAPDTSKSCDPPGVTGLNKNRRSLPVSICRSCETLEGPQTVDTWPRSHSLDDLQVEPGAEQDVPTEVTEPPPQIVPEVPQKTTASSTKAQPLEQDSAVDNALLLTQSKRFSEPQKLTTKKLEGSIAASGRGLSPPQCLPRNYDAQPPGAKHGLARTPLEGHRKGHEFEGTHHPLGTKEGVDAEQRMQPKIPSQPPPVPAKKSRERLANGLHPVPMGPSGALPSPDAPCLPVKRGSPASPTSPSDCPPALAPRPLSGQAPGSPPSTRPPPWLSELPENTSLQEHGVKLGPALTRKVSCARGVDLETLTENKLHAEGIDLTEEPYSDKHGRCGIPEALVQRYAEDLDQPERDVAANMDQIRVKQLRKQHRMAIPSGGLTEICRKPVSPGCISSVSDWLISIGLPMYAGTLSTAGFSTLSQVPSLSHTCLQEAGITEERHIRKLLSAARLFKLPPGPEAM
UniProt Q9NX18: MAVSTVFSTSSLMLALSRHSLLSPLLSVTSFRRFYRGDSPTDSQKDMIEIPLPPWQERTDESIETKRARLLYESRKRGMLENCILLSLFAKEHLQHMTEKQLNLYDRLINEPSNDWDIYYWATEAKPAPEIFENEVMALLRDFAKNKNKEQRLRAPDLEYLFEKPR
UniProt Q96I15: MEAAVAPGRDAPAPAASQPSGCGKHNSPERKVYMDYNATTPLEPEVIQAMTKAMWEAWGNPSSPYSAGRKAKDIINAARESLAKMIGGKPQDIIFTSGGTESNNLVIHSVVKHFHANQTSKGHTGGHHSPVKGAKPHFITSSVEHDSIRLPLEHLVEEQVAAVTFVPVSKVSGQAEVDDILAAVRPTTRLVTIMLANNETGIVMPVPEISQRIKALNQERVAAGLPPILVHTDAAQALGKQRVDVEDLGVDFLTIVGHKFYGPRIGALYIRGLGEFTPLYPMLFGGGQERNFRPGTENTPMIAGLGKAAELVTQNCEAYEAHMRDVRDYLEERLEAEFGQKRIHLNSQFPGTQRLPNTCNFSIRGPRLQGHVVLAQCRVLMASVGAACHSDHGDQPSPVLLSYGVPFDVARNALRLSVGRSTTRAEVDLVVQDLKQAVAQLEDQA
UniProt O00560: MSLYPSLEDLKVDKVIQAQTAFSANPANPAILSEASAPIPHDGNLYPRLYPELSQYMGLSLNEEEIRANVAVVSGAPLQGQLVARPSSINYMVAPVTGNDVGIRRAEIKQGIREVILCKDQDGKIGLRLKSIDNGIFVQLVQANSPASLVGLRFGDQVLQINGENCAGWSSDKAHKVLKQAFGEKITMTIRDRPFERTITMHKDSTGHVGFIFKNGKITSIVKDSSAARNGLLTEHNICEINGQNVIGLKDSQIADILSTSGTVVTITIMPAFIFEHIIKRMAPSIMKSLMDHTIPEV

What was measured:
Experiment in all cases: log2 fold change, soluble protein after heating vs DMSO (PISA); higher = thermal stabilisation; K562 cells, 10 uM, 30 min; active = over 0.2 and 3.5 SD of the protein, either way, in both replicates (recomputed)
[1] = compound: C1=CC=C(C=C1)[C@H](COC2=CC3=C(C=C2)NC(=O)N3)NC(=O)C4=CC=CN(C4=O)CC5=CC(=C(C=C5)F)F
Summary of the method: (§1)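 Thermal stability values are relative to control samples and come from duplicates. They are expressed as log2 fold changes. For measurement, K562 cells (2×10^6 cells/mL) received 10 μM compound for 30 min, and aliquots were heated for 3 min over 48°C-58°C, pooled, and extracted at 4°C in PBS with 0.5% NP-40. Soluble protein, the supernatant after 21,000xg for 90 min, was quantified by TMTpro 16plex LC-MS/MS with equalised channel sums.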

[2] = compound: CC1=C(SC2=C1C(=N[C@H](C3=NN=C(N32)C)CC(=O)N)C4=CC=C(C=C4)Cl)C
Summary of the method: as §1

[3] = compound: CC1=C2C(=CC=C1)N=C(N(C2=O)C3=CC=CC=C3C)CN4C=NC5=C(N=CN=C54)N
Summary of the method: as §1

[4] = compound: Cc1sc2c(c1C)C(c1ccc(Cl)cc1)=N[C@@H](CC(=O)OC(C)(C)C)c1nnc(C)n1-2
Summary of the method: as §1

[5] = compound: c1ccc([C@@H]2C[C@H]2NC2CCNCC2)cc1
Summary of the method: as §1

Measured: log2 fold change

SCO2 (UniProt O43819)
inactive: [1] -0.03 | [2] -0.108 | [3] -0.041 | [4] -0.098 | [5] 0.023

RSPRY1 (UniProt Q96DX4)
inactive: [1] -0.009 | [2] 0.024 | [3] 0.012 | [4] -0.026 | [5] 0.029

SCAMP4 (UniProt Q969E2)
inactive: [1] 0.039 | [2] 0.004 | [3] 0.047 | [4] -0.043 | [5] 0.001

SCO1 (UniProt O75880)
inactive: [1] 0.031 | [2] 0.061 | [3] 0.131 | [4] 0.061 | [5] -0.011

RSBN1L (UniProt Q6PCB5)
inactive: [1] 0.117 | [2] -0.285 | [3] -0.261 | [4] 0.17 | [5] 0.034

SBNO1 (UniProt A3KN83)
inactive: [1] -0.046 | [2] 0.054 | [3] 0.055 | [4] -0.011 | [5] -0.017

SEC16A isoform 5 (UniProt O15027)
inactive: [1] 0.014 | [2] 0.012 | [3] 0.154 | [4] 0.011 | [5] -0.006

RRS1 (UniProt Q15050)
inactive: [1] 0.168 | [2] -0.368 | [3] -0.187 | [4] 0.246 | [5] -0.006

2 entries drawn at random from those above, as already listed:
SBNO1 (UniProt A3KN83)
inactive: [1] -0.046 | [2] 0.054 | [3] 0.055 | [4] -0.011 | [5] -0.017

SCO2 (UniProt O43819)
inactive: [1] -0.03 | [2] -0.108 | [3] -0.041 | [4] -0.098 | [5] 0.023

Carrying on.

RTF1 (UniProt Q92541)
inactive: [1] -0.014 | [2] 0.036 | [3] 0.057 | [4] -0.013 | [5] 0.02

RTN3 isoform 5 (UniProt O95197)
inactive: [1] 0.158 | [2] 0.248 | [3] 0.079 | [4] -0.002 | [5] -0.215

SCAF11 (UniProt Q99590)
inactive: [1] -0.104 | [2] -0.098 | [3] 0.021 | [4] 0.064 | [5] 0.016

SCFD2 (UniProt Q8WU76)
inactive: [1] 0.045 | [2] -0.002 | [3] -0.028 | [4] 0.026 | [5] 0.056

RUFY1 (UniProt Q96T51)
inactive: [1] -0.006 | [2] -0.029 | [3] 0.041 | [4] 0.002 | [5] -0.028

SCYL2 (UniProt Q6P3W7)
inactive: [1] -0.023 | [2] 0.041 | [3] 0.031 | [4] -0.023 | [5] -0.006

RTN4 isoform 2 (UniProt Q9NQC3)
inactive: [1] -0.013 | [2] 0.053 | [3] 0.033 | [4] -0.055 | [5] 0.101

SEC24C (UniProt P53992)
inactive: [1] -0.069 | [2] 0.044 | [3] 0.108 | [4] -0.005 | [5] -0.023

SAMM50 (UniProt Q9Y512)
inactive: [1] 0.023 | [2] -0.002 | [3] -0.014 | [4] 0.013 | [5] 0.024

RTF2 (UniProt Q9BY42)
inactive: [1] 0.054 | [2] -0.009 | [3] 0.068 | [4] -0.038 | [5] 0.045

SCCPDH (UniProt Q8NBX0)
inactive: [1] -0.047 | [2] 0.087 | [3] 0.002 | [4] -0.003 | [5] -0.059

RSF1 (UniProt Q96T23)
inactive: [1] -0.102 | [2] 0.091 | [3] 0.096 | [4] -0.061 | [5] -0.018

SDHB (UniProt P21912)
inactive: [1] 0.008 | [2] -0.019 | [3] -0.05 | [4] 0.033 | [5] 0.03

RTN3 (UniProt O95197)
inactive: [1] -0.001 | [2] 0.074 | [3] 0.044 | [4] -0.039 | [5] -0.011

SEC24B isoform 3 (UniProt O95487)
inactive: [1] 0.027 | [2] -0.001 | [3] 0.088 | [4] 0.043 | [5] 0.091

SASH1 (UniProt O94885)
inactive: [1] -0.044 | [2] 0.092 | [3] 0.037 | [4] -0.045 | [5] -0.161

SDHAF2 (UniProt Q9NX18)
inactive: [1] -0.02 | [2] 0.078 | [3] -0.013 | [4] -0.097 | [5] -0.096

SCLY (UniProt Q96I15)
inactive: [1] 0.009 | [2] 0.045 | [3] 0.039 | [4] -0.009 | [5] 0.018

SDCBP (UniProt O00560)
inactive: [1] 0.029 | [2] -0.031 | [3] -0.067 | [4] 0.04 | [5] -0.102

SCAMP2 (UniProt O15127)
inactive: [1] 0.061 | [2] 0.026 | [3] -0.041 | [4] -0.105 | [5] -0.048
